PMC8008175 (The Journal of Biological Chemistry, 2021)
Results are given in words; binding and its absence hold for the method and conditions named. Tags and fused reporters may be left off the sequences shown.

How the values were obtained:
[1] = target: T1, full-length Rpn1 (Saccharomyces cerevisiae), P38764; test: NMR titration; ^1H-^15N spectra of the ^15N-enriched protein or UBL domain with unlabeled Rpn1^FL (equimolar; excess for Ddi1); signal attenuation; 20 mM sodium phosphate, 150 mM NaCl, 1 mM TCEP, pH 6.8; 21-25 °C; both purified; settings: remark: other sources report otherwise
T1 chain: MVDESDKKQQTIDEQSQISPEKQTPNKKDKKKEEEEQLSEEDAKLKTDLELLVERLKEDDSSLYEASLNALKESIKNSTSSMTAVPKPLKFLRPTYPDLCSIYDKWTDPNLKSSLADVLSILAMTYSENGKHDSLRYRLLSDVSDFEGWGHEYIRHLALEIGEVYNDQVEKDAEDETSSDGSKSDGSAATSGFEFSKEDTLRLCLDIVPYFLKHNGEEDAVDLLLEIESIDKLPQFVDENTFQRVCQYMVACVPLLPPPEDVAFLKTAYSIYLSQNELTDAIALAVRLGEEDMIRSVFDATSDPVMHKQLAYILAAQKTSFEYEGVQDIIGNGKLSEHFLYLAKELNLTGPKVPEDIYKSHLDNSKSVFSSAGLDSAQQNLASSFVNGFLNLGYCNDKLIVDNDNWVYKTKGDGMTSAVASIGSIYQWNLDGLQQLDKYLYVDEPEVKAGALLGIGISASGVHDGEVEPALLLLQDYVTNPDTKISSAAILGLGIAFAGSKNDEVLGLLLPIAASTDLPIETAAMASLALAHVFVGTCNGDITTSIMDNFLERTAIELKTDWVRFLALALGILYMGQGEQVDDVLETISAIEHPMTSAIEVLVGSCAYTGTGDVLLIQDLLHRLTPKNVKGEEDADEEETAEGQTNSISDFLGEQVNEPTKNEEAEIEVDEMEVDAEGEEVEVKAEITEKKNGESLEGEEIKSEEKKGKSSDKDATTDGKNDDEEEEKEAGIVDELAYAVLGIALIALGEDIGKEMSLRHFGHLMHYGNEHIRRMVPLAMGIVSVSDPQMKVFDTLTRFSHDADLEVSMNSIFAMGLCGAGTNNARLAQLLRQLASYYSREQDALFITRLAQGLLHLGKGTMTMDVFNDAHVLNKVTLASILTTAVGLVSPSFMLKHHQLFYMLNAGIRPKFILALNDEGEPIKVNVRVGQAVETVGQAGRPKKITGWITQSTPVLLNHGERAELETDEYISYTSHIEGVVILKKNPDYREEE

Rpn1^391-642 = target: T2, Rpn1^391-642 (Saccharomyces cerevisiae, UniProt P38764 391-642); test: NMR titration; ^1H-^15N spectra, CSPs and ^15N R2 of 150 μM ^15N-UBL or ^15N-^dK48-Ub2 with unlabeled Rpn1^391-642; 50 mM HEPES, 50 mM KCl, 1 mM TCEP, pH 7.6; 21-25 °C; both purified
T2 construct: Used unlabeled, and ^15N-enriched for the titration with Ubp6-UBL; source: E. coli, purified
T2 sequence (looked up): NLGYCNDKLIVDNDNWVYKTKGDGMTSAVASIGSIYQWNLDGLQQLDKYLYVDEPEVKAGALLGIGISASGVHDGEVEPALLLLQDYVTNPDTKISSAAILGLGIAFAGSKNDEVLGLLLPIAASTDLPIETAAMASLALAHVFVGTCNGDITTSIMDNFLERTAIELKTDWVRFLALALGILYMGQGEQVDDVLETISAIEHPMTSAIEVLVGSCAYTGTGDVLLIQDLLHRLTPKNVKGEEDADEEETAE

Rpn1^356-905 = target: T3, Rpn1^356-905 (Saccharomyces cerevisiae, UniProt P38764 356-905); test: NMR titration; ^1H-^15N spectra of ^15N-UBL with unlabeled Rpn1^356-905; 50 mM Tris-Cl, 200 mM KCl, 5% glycerol, 5 mM β-mercaptoethanol, pH 7.4; 21-25 °C; both purified
T3 construct: also called PC repeat region construct; source: E. coli, purified
T3 sequence (looked up): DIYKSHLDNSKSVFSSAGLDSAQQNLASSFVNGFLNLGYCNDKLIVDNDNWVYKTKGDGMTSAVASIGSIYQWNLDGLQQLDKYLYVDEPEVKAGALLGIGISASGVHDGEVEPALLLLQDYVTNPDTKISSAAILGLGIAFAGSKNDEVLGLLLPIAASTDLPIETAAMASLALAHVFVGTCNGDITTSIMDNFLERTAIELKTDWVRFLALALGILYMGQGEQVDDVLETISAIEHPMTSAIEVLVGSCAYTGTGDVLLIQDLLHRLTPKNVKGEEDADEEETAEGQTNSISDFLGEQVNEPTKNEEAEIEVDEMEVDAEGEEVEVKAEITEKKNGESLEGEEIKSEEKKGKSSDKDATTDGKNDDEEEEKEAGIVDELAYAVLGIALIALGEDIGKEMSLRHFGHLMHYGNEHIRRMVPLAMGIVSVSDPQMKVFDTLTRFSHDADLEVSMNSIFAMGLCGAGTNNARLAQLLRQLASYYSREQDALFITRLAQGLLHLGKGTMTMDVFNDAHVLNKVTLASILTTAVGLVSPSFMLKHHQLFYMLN

full-length Rpn1 = target: T4, full-length Rpn1 (Saccharomyces cerevisiae, UniProt P38764 1-993); test: NMR titration; ^1H-^15N spectra of the ^15N-enriched protein or UBL domain with unlabeled Rpn1^FL (equimolar; excess for Ddi1); signal attenuation; 20 mM sodium phosphate, 150 mM NaCl, 1 mM TCEP, pH 6.8; 21-25 °C; both purified
T4 construct: Rpn1, proteasomal subunit, Saccharomyces cerevisiae, UniProt P38764, full length; Unlabeled in the NMR experiments; also called Rpn1^FL; source: E. coli, purified
T4 sequence (looked up): T1 chain

B1: full-length Ddi1, P40087 1-428 (protein)
chain: MDLTISNELTGEIYGPIEVSEDMALTDLIALLQADCGFDKTKHDLYYNMDILDSNRTQSLKELGLKTDDLLLIRGKISNSIQTDAATLSDEAFIEQFRQELLNNQMLRSQLILQIPGLNDLVNDPLLFRERLGPLILQRRYGGYNTAMNPFGIPQDEYTRLMANPDDPDNKKRIAELLDQQAIDEQLRNAIEYTPEMFTQVPMLYINIEINNYPVKAFVDTGAQTTIMSTRLAKKTGLSRMIDKRFIGEARGVGTGKIIGRIHQAQVKIETQYIPCSFTVLDTDIDVLIGLDMLKRHLACVDLKENVLRIAEVETSFLSEAEIPKSFQEGLPAPTSVTTSSDKPLTPTKTSSTLPPQPGAVPALAPRTGMGPTPTGRSTAGATTATGRTFPEQTIKQLMDLGFPRDAVVKALKQTNGNAEFAASLLFQ
[1]
  binding: no binding

B2: Ddi1-UBL (domain or fragment, UniProt P40087 1-80)
chain: MDLTISNELTGEIYGPIEVSEDMALTDLIALLQADCGFDKTKHDLYYNMDILDSNRTQSLKELGLKTDDLLLIRGKISNS
Rpn1^391-642
  binding: no binding
Rpn1^356-905
  binding: no binding
full-length Rpn1
  binding: no binding
